Measurements: article doi:10.1101/2024.11.29.626106
No constants are given. Whether binding was seen depends on the method and setting. In cells and extracts the contact can be indirect. Here binding means that the protein was enriched with, or labelled near, the bait; the list need not be complete. Sequences can lack the tags named with a protein.

Protein sequences, listed by entry. Tags and fused reporters are not part of them. Residues count along the entry.
UniProt O00220, residues 24-468: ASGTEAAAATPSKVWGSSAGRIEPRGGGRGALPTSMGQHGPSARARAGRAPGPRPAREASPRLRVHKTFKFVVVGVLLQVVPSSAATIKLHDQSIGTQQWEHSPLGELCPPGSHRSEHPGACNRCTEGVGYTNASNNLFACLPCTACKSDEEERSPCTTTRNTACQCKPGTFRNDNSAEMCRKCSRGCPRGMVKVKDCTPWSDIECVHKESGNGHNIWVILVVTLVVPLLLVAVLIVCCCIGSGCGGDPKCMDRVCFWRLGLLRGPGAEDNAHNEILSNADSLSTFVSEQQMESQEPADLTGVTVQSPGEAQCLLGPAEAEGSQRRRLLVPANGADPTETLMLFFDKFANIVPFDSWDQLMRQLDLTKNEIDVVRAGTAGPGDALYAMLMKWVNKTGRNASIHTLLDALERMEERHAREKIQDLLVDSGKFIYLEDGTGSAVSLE
UniProt P16070, residues 21-742: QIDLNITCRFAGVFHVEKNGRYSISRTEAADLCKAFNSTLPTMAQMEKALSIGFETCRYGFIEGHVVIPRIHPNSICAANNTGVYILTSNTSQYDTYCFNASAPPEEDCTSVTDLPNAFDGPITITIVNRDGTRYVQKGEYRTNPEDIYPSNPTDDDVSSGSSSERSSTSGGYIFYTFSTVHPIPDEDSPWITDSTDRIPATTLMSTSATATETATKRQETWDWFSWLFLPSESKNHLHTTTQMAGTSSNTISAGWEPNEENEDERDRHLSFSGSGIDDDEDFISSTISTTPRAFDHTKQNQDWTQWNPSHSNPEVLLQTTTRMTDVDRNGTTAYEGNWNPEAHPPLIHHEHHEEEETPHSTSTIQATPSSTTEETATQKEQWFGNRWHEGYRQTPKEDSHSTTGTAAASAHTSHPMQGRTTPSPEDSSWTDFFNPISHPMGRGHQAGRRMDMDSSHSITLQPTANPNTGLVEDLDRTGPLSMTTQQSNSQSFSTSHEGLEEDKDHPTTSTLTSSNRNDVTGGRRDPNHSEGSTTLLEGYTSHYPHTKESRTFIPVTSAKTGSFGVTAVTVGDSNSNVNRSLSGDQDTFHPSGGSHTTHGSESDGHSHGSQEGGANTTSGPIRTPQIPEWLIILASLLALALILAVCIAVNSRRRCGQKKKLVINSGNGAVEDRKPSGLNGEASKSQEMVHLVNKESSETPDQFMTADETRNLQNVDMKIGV

Target: T1, 3xHA-TurboID-MARCHF8 fusion protein (human) (UniProt Q5T0T0)
T1 sequence: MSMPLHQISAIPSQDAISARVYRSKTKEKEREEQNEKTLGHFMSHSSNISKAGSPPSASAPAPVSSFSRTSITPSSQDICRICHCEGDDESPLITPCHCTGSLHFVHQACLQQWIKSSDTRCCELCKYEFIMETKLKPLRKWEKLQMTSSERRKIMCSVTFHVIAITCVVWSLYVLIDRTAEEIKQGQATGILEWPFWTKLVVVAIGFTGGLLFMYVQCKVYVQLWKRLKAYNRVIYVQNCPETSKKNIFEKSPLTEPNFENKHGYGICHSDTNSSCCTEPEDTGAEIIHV
Assay: proximity labelling

Substance	binding
TNF-related apoptosis-inducing ligand receptor 1 (TRAIL-R1) (from UniProt O00220 24-468)	binds
CDH1	binds
CD44 (from UniProt P16070 21-742) (receptor)	binds
